Source: PMC11844287
Results are given in words; binding and its absence hold for the method and conditions named. Binding seen in cells or lysates may run through a third protein. Some binding calls cover weakened binding; strength is not graded here.

Amino acid sequences for entries named in this document (tags omitted).
UniProt Q15717: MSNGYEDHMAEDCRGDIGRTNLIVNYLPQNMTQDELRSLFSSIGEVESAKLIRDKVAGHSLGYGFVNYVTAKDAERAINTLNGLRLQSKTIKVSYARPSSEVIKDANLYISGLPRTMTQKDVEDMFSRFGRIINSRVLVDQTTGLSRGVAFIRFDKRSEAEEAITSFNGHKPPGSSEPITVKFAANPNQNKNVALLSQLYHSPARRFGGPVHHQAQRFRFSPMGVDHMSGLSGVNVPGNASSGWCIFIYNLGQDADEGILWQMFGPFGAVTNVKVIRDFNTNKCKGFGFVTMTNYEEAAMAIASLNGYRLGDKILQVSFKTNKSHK

Molecular target: T1, B cell receptor associated protein 31 (BAP31) (human (endogenous in HCC cells)) (UniProt P51572)
T1 sequence: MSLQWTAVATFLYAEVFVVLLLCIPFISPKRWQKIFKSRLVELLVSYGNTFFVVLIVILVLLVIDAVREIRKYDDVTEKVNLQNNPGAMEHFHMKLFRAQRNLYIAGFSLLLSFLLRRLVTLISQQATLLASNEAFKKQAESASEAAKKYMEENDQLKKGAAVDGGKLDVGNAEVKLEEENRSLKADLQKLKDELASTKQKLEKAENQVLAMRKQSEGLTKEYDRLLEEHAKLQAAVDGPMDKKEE
Test: co-IP; lysates of HCC cells immunoprecipitated with anti-BAP31, anti-ELAVL1 or mouse IgG isotype antibody

“embryonic lethal abnormal vision like 1 (ELAVL1) (from UniProt Q15717 1-326)” was tested, and the binding was “binds”.
